Data as given in PubChem BioAssay AID504744 (Drosophila RNAi Screening Center, 2011).
Screen: 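Find genes whose loss alters insulin-driven dAkt phosphorylation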 (primary screen). System: Drosophila Kc167 cells. Reagents: long dsRNA against Drosophila genes, 250 ng dsRNA per well of a 384-well plate. Timing: 3 days of knock-down, then overnight serum-free starvation before stimulation. Treatment: bovine insulin at 387 nM for 10 minutes after 12 h without serum. Measurement: 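Per-well phospho-dAkt level from an in-cell fluorescent antibody stain, divided by a DNA-dye signal; log2 residuals turned into z-scores that take cell number into account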. Hit rule: 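Under insulin, a gene counts as a hit if the average z-score of two replicates lies above 2.5 or below -2.5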.
The screen tested about 23,000 reagents; below is an unselected part of those with a known target gene and a result. In the full data, 98 (0.43%) are marked active. 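Only hit calls are given; the phospho-dAkt signals, z-scores and hit direction were not deposited.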 Names joined by + are all predicted targets of the reagent.

{"predicted target": "Naa15-16 (N(alpha)-acetyltransferase 15/16)", "DRSC id": "DRSC19440", "Call": "inactive"}
{"predicted target": "Naa15-16 (N(alpha)-acetyltransferase 15/16)", "DRSC id": "DRSC22846", "Call": "inactive"}
{"predicted target": "crb (crumbs)", "DRSC id": "DRSC16927", "Call": "inactive"}
{"predicted target": "CG10428", "DRSC id": "DRSC02054", "Call": "inactive"}
{"predicted target": "CG17991", "DRSC id": "DRSC15294", "Call": "inactive"}
{"predicted target": "TwdlN (TweedleN)", "DRSC id": "DRSC15813", "Call": "inactive"}
{"predicted target": "sw + Sdic4 + Sdic3 + 2 more", "DRSC id": "DRSC20696", "Call": "inactive"}
{"predicted target": "CG13014", "DRSC id": "DRSC19533", "Call": "inactive"}
{"predicted target": "CG7567", "DRSC id": "DRSC16258", "Call": "inactive"}
{"predicted target": "vir-1 (virus-induced RNA 1)", "DRSC id": "DRSC02501", "Call": "inactive"}
{"predicted target": "vir-1 (virus-induced RNA 1)", "DRSC id": "DRSC02863", "Call": "inactive"}
{"predicted target": "uno (univalents only)", "DRSC id": "DRSC07244", "Call": "inactive"}
{"predicted target": "CG31265", "DRSC id": "DRSC15745", "Call": "inactive"}
{"predicted target": "CG42613", "DRSC id": "DRSC13332", "Call": "inactive"}
{"predicted target": "CG42613", "DRSC id": "DRSC14769", "Call": "inactive"}
{"predicted target": "CG42613", "DRSC id": "DRSC15802", "Call": "inactive"}
{"predicted target": "S1P (Site-1 protease)", "DRSC id": "DRSC11810", "Call": "inactive"}
{"predicted target": "cad (caudal)", "DRSC id": "DRSC03502", "Call": "inactive"}
{"predicted target": "CG34266", "DRSC id": "DRSC08323", "Call": "inactive"}
{"predicted target": "CG1142", "DRSC id": "DRSC12531", "Call": "inactive"}
{"predicted target": "ec (echinus)", "DRSC id": "DRSC17285", "Call": "inactive"}
{"predicted target": "ec (echinus)", "DRSC id": "DRSC17286", "Call": "inactive"}
{"predicted target": "ec (echinus)", "DRSC id": "DRSC18658", "Call": "inactive"}
{"predicted target": "wek (weckle)", "DRSC id": "DRSC03561", "Call": "inactive"}
{"predicted target": "hlk (hulk)", "DRSC id": "DRSC05021", "Call": "inactive"}
{"predicted target": "hlk (hulk)", "DRSC id": "DRSC05022", "Call": "inactive"}
{"predicted target": "trbd (trabid)", "DRSC id": "DRSC16494", "Call": "inactive"}
{"predicted target": "CG13658", "DRSC id": "DRSC14659", "Call": "inactive"}
{"predicted target": "psh (persephone)", "DRSC id": "DRSC19990", "Call": "inactive"}
{"predicted target": "CG13244", "DRSC id": "DRSC21642", "Call": "inactive"}
{"predicted target": "egg (eggless)", "DRSC id": "DRSC04119", "Call": "inactive"}
{"predicted target": "egg (eggless)", "DRSC id": "DRSC22534", "Call": "inactive"}
{"predicted target": "CROT (Carnitine O-octanoyltransferase)", "DRSC id": "DRSC14518", "Call": "inactive"}
{"predicted target": "CROT (Carnitine O-octanoyltransferase)", "DRSC id": "DRSC14519", "Call": "inactive"}
{"predicted target": "Srrm1 (Serine-arginine repetitive matrix 1)", "DRSC id": "DRSC09835", "Call": "inactive"}
{"predicted target": "eIF4E1 (eukaryotic translation initiation factor 4E1)", "DRSC id": "DRSC11342", "Call": "inactive"}
{"predicted target": "CG12506", "DRSC id": "DRSC00347", "Call": "inactive"}
{"predicted target": "CG11854", "DRSC id": "DRSC14409", "Call": "inactive"}
{"predicted target": "CG32036", "DRSC id": "DRSC10362", "Call": "inactive"}
{"predicted target": "CG31418", "DRSC id": "DRSC21780", "Call": "inactive"}
{"predicted target": "Eglp1 (Entomoglyceroporin 1)", "DRSC id": "DRSC04502", "Call": "inactive"}
{"predicted target": "CG9427", "DRSC id": "DRSC16490", "Call": "inactive"}
{"predicted target": "CG14302", "DRSC id": "DRSC14781", "Call": "inactive"}
{"predicted target": "CG17030", "DRSC id": "DRSC08503", "Call": "inactive"}
{"predicted target": "Mon1 (Monensin sensitivity 1)", "DRSC id": "DRSC00336", "Call": "inactive"}
{"predicted target": "CG7231", "DRSC id": "DRSC03034", "Call": "inactive"}
{"predicted target": "Ankrd49", "DRSC id": "DRSC01894", "Call": "inactive"}
{"predicted target": "CG17803", "DRSC id": "DRSC15275", "Call": "inactive"}
{"predicted target": "CG17803", "DRSC id": "DRSC22811", "Call": "inactive"}
{"predicted target": "stv (starvin)", "DRSC id": "DRSC09796", "Call": "inactive"}
{"predicted target": "stv (starvin)", "DRSC id": "DRSC10111", "Call": "inactive"}
{"predicted target": "CG12111", "DRSC id": "DRSC17808", "Call": "inactive"}
{"predicted target": "CG31913", "DRSC id": "DRSC00892", "Call": "inactive"}
{"predicted target": "CG30094", "DRSC id": "DRSC22268", "Call": "inactive"}
{"predicted target": "CG10163", "DRSC id": "DRSC09710", "Call": "inactive"}
{"predicted target": "Ir94h (Ionotropic receptor 94h)", "DRSC id": "DRSC15232", "Call": "inactive"}
{"predicted target": "CG8292", "DRSC id": "DRSC03082", "Call": "inactive"}
{"predicted target": "CG30423", "DRSC id": "DRSC04013", "Call": "inactive"}
{"predicted target": "Sbp2 (SECIS-binding protein 2)", "DRSC id": "DRSC10766", "Call": "inactive"}
{"predicted target": "CG12507", "DRSC id": "DRSC19463", "Call": "inactive"}
{"predicted target": "CG8237", "DRSC id": "DRSC07119", "Call": "inactive"}
{"predicted target": "BaraB (Baramicin B)", "DRSC id": "DRSC06420", "Call": "inactive"}
{"predicted target": "CG14563", "DRSC id": "DRSC11724", "Call": "inactive"}
{"predicted target": "CG10505", "DRSC id": "DRSC04075", "Call": "inactive"}
{"predicted target": "CG4294", "DRSC id": "DRSC04460", "Call": "inactive"}
{"predicted target": "Dph5 (Diphthamide methyltransferase)", "DRSC id": "DRSC16653", "Call": "inactive"}
{"predicted target": "Hsp60A (Heat shock protein 60A)", "DRSC id": "DRSC20254", "Call": "inactive"}
{"predicted target": "ouib (ouija board)", "DRSC id": "DRSC14376", "Call": "inactive"}
{"predicted target": "CG9837", "DRSC id": "DRSC16573", "Call": "inactive"}
{"predicted target": "PK2-R2 (Pyrokinin 2 receptor 2)", "DRSC id": "DRSC16448", "Call": "inactive"}
{"predicted target": "oys (oysgedart)", "DRSC id": "DRSC05203", "Call": "inactive"}
{"predicted target": "oys (oysgedart)", "DRSC id": "DRSC06751", "Call": "inactive"}
{"predicted target": "CG7720", "DRSC id": "DRSC16306", "Call": "inactive"}
{"predicted target": "CG7720", "DRSC id": "DRSC16307", "Call": "inactive"}

Records above whose target name starts with S or s:
{"predicted target": "sw + Sdic4 + Sdic3 + 2 more", "DRSC id": "DRSC20696", "Call": "inactive"}
{"predicted target": "S1P (Site-1 protease)", "DRSC id": "DRSC11810", "Call": "inactive"}
{"predicted target": "Srrm1 (Serine-arginine repetitive matrix 1)", "DRSC id": "DRSC09835", "Call": "inactive"}
{"predicted target": "stv (starvin)", "DRSC id": "DRSC09796", "Call": "inactive"}
{"predicted target": "stv (starvin)", "DRSC id": "DRSC10111", "Call": "inactive"}
{"predicted target": "Sbp2 (SECIS-binding protein 2)", "DRSC id": "DRSC10766", "Call": "inactive"}
